No constants are given. Whether binding was seen depends on the method and setting. Binding seen in cells or lysates may run through a third protein. Sequences can lack the tags named with a protein.
Molecular target: T1, MIM-FLAG (Mus musculus) (UniProt Q8R1S4)
T1 sequence: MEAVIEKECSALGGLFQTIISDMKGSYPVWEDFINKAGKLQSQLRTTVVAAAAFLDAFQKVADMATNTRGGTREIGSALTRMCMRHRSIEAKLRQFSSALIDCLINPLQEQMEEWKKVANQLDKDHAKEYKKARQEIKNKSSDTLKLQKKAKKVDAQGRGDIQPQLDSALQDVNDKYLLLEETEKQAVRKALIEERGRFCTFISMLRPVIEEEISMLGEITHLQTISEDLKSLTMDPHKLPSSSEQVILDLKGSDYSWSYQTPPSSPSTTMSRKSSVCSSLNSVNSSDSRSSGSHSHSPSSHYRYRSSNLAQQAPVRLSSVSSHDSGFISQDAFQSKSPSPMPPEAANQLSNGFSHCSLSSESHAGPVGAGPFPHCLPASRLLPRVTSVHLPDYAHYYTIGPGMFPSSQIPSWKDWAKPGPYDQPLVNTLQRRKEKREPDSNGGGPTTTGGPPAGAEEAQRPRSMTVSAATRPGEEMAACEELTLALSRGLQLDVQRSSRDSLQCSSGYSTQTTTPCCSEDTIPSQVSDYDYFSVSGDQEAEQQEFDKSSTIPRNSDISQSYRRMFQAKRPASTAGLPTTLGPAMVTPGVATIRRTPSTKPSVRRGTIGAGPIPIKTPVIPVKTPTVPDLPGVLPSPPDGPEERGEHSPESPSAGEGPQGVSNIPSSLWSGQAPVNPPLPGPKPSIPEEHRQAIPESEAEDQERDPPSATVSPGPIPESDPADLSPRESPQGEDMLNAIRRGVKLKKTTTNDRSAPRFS
Experiment: co-IP

- binding: no binding
Substance: EVL ΔEVH1 mutant (tagged, overexpressed) (Mus musculus) (domain or fragment)
